Measurements from “University of Dundee, Small-Polar-MMV Screening Library” (2021), ChEMBL document CHEMBL3988442.

Protein sequences, listed by entry. Tags and fused reporters are not part of them. Residues count along the entry.
UniProt P9WNZ1, whole entry: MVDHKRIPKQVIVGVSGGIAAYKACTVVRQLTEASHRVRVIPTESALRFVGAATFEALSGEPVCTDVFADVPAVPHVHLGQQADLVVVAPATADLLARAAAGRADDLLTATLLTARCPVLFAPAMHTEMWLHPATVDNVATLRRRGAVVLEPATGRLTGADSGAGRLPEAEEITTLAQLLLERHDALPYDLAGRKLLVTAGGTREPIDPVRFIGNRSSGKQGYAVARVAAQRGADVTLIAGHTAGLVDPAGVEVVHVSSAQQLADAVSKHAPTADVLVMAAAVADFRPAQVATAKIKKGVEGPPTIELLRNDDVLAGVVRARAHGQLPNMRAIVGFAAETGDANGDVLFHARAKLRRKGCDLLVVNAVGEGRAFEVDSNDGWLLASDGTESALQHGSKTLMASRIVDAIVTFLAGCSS
UniProt I6X8D2, whole entry: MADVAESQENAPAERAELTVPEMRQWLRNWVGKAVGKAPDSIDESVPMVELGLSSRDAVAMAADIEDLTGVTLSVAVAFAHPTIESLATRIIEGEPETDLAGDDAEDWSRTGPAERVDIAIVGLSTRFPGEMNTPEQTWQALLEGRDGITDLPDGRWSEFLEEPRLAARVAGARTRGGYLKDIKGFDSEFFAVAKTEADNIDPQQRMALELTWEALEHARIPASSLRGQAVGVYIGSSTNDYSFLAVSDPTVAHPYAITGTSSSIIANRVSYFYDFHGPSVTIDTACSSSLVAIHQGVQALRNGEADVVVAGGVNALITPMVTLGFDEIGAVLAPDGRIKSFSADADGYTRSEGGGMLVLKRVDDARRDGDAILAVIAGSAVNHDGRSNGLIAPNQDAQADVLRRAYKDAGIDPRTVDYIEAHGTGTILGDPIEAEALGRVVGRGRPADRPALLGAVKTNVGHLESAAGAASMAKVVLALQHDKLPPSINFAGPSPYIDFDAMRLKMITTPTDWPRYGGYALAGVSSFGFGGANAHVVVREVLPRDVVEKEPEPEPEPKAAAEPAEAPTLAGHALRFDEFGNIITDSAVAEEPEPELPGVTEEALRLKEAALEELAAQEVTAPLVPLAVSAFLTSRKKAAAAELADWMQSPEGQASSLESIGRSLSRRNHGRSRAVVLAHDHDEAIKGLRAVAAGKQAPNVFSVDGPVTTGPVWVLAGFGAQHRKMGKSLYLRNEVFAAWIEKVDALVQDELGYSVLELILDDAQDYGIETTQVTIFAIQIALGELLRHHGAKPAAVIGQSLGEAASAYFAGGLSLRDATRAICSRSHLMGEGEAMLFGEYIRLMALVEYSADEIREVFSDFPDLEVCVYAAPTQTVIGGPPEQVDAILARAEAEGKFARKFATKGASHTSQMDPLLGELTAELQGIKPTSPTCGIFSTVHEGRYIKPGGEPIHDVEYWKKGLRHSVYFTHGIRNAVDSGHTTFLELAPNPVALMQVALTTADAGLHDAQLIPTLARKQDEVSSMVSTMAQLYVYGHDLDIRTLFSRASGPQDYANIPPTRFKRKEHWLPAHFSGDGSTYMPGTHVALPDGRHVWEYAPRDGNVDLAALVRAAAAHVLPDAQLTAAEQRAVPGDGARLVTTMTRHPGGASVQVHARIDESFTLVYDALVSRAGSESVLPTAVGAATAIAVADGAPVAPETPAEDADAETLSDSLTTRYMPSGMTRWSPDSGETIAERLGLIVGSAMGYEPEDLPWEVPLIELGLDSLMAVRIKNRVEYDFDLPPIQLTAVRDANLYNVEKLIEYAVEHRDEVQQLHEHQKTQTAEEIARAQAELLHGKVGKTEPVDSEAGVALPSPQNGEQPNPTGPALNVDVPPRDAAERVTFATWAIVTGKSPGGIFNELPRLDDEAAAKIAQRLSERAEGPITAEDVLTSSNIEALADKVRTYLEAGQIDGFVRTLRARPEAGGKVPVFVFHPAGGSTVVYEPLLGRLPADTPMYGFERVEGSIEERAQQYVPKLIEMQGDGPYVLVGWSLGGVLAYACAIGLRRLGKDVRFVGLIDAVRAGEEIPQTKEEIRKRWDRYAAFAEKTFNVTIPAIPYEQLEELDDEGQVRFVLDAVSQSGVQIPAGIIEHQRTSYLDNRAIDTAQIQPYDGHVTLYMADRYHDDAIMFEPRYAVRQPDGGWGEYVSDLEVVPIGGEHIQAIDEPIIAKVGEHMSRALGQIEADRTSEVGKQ
UniProt P9WPC5, whole entry: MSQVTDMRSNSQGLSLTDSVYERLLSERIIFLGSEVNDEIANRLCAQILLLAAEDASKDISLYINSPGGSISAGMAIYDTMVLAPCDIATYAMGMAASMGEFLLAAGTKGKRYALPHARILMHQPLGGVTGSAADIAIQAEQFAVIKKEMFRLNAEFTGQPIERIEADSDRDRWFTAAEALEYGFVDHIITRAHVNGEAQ
UniProt P9WPC3, whole entry partner: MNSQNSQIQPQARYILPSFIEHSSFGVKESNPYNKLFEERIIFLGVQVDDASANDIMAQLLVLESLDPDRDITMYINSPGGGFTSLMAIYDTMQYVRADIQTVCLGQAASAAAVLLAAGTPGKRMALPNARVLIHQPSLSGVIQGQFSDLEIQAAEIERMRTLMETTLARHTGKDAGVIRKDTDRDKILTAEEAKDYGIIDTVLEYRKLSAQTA
UniProt A4I591, 1-473: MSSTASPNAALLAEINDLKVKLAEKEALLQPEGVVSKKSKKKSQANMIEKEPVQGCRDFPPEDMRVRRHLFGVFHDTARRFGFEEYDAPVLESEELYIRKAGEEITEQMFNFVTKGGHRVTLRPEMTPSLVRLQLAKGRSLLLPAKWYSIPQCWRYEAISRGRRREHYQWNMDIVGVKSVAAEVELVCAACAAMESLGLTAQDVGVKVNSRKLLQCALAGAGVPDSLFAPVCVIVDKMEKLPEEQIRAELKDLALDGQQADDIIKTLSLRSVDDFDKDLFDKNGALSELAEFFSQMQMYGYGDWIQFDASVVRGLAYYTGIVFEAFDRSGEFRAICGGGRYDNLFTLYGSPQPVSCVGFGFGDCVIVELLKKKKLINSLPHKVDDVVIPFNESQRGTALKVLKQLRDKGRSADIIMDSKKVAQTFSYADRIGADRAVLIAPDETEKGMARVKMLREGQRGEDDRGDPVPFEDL
UniProt P9WFT3, whole entry: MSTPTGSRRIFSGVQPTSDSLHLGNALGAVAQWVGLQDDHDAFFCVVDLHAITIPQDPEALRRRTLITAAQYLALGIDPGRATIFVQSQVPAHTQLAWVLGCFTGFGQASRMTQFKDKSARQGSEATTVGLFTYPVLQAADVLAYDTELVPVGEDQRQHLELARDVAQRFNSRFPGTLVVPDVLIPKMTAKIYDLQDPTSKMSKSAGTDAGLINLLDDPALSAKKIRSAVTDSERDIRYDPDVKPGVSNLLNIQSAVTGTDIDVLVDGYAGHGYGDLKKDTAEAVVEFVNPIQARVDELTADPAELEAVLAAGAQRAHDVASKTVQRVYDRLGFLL

CoaBC: 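Enzyme assay of CoaBC with a phosphate dye (Biomol Green) read at 650 nm. Target: Coenzyme A biosynthesis protein CoaBC, Mycobacterium tuberculosis (UniProt P9WNZ1). Tested at 30 µM. Direction is inferred from only a few compounds that gave an IC50; most scored high, so higher reads as stronger inhibition. Most strong results did not repeat in a second test. Size under these conditions: about 67,000 compounds, about 40 of them at 50% or above in at least one test.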
Pks13 thioesterase: 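Polyketide synthase Pks13, Mycobacterium tuberculosis (UniProt I6X8D2). Enzyme assay of the thioesterase domain of polyketide synthase 13; the read-out is not stated. Concentration: 30 µM. Higher reads as stronger inhibition (inferred from which compounds were picked for retests). About 67,000 compounds were tested under these conditions; 0.46% (about 300) showed 50% or more at least once.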
ClpP1P2: 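ClpP1P2, Mycobacterium tuberculosis (UniProt P9WPC5 and UniProt P9WPC3). Protease assay of ClpP1P2, read by the AMC dye that it sets free. Concentration: 50 µM. Direction is inferred from only a few compounds that gave an IC50; most scored high, so higher reads as stronger inhibition. Most other retested compounds had strongly negative values. Of about 69,000 compounds tested this way, about 10 (0.015%) reached 50% or more in at least one test.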
LiHisRS: 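Histidine-tRNA ligase, Leishmania infantum (UniProt A4I591). Enzyme assay of histidyl-tRNA synthetase; the read-out is not stated. Tested at 30 µM. Higher reads as stronger inhibition (inferred: compounds with an IC50 in retests scored well above the rest). The assay is labelled LdHisRS but filed under L. infantum. About 69,000 compounds were tested under these conditions; 0.6% (about 410) showed 50% or more at least once.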
MtTrpRS: 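Enzyme assay of tryptophanyl-tRNA synthetase; the read-out is not stated. Target: Tryptophan-tRNA ligase, Mycobacterium tuberculosis (UniProt P9WFT3). Tested at 10 µM. Direction is not recorded; retested compounds ran higher, which suggests that high means inhibition. Of about 65,000 compounds tested this way, about 64 (0.098%) reached 50% or more in at least one test.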

Each number is a percent effect as filed.
The record does not define 0% and 100%; most values in the screen are far below 50% and negative numbers occur (in some assays of this library far below -100).
This is an unselected part of the compounds tested.

Result for O=C1NCCCc2[nH]c(-c3nc(C4CC4)no3)nc21 was CoaBC: -4.668%; Pks13 thioesterase: 0.7995%; ClpP1P2: -2.459%; LiHisRS: 19.35%; MtTrpRS: 5.641%.
Result for Cc1cc(C[C@@H]2COC[C@H]2NCc2ccccc2C(F)(F)F)on1 was CoaBC: 1.111%; Pks13 thioesterase: -10.58%; ClpP1P2: -2.364%; LiHisRS: 13.89%; MtTrpRS: 1.421%.
Result for Cc1cc(C)n(CC(C)NCc2nncn2C2CCCCC2)n1 (stereo not drawn) was CoaBC: 7.298%; Pks13 thioesterase: -20.47%; ClpP1P2: -4.209%; LiHisRS: 24.24%; MtTrpRS: 3.232%.
Result for Cn1ccc(C(=O)N2CCN(c3ncccn3)CC2)cc1=O was CoaBC: 4.626%; Pks13 thioesterase: 11.11%; ClpP1P2: 8.374%; LiHisRS: 21.43%; MtTrpRS: -1.017%.
Result for O=C(NCC1CCN(Cc2cc3ccccc3[nH]2)C1)c1ccsc1 (stereo not drawn) was CoaBC: 1.781%; Pks13 thioesterase: -12.07%; ClpP1P2: -10.55%; LiHisRS: 30.77%; MtTrpRS: -0.8497%.
Result for CCn1ccnc1CN1CCCN(C(=O)c2scnc2C)CC1 was CoaBC: 1.79%; Pks13 thioesterase: -13.88%; ClpP1P2: -23.61%; LiHisRS: 16.51%; MtTrpRS: -4.472%.
Result for FC(F)(F)c1ccc(-c2n[nH]c3c2CN(CC2CCOC2)CC3)cc1 (stereo not drawn) was CoaBC: 1.489%; ClpP1P2: -7.568%; LiHisRS: 8.511%; MtTrpRS: 2.348%.
Result for CN1CCN([C@@H]2CN(C(=O)c3ccnnc3)[C@@H]3CCCO[C@H]23)CC1 was CoaBC: 3.462%; Pks13 thioesterase: -4.723%; ClpP1P2: -6.934%; LiHisRS: 5.263%; MtTrpRS: -7.033%.
Result for CC(C)C(C(=O)N1CCCN(Cc2cnn(C)c2)CC1)n1cncn1 (stereo not drawn) was CoaBC: 1.364%; Pks13 thioesterase: 6.238%; ClpP1P2: -19.52%; LiHisRS: -0.9434%; MtTrpRS: -1.408%.
Result for COc1ccc(C(C(=O)O)N2CCN(C3CCCC3)CC2)cc1OC (stereo not drawn) was CoaBC: -11.49%; Pks13 thioesterase: -8.31%; ClpP1P2: 16.46%; LiHisRS: 15.15%; MtTrpRS: -5.247%.
Result for COc1ccc(CNC(=O)NCCc2nc(C)c(C)s2)cn1 was Pks13 thioesterase: -41.27%; ClpP1P2: -1.43%; LiHisRS: 25.71%; MtTrpRS: -0.516%.
Result for Cc1cccc(N(CCC(N)=O)CC(=O)Nc2cc(Cl)ccc2Cl)c1 was CoaBC: -4.177%; Pks13 thioesterase: -13.41%; ClpP1P2: -10.96%; LiHisRS: 4.301%; MtTrpRS: 2.821%.
Result for Cc1nc(CN2CCN(c3ccc(SC(C)C)nn3)CC2)cs1 was CoaBC: 12.7%; Pks13 thioesterase: -15.89%; ClpP1P2: -2.133%; LiHisRS: 16.96%; MtTrpRS: 4.956%.
Result for O=C(Nc1cccc(OCC(F)F)n1)c1ccncc1 was CoaBC: -1.141%; Pks13 thioesterase: -7.178%; ClpP1P2: -6.22%; LiHisRS: 18.99%; MtTrpRS: 4.361%.
Result for COC(=O)C(C)(C)C(C)(C)NC(=O)Nc1nnc(-c2ccccn2)s1 was CoaBC: 2.539%; Pks13 thioesterase: -5.78%; ClpP1P2: -6.109%; LiHisRS: 11.29%; MtTrpRS: 0.3673%.
Result for COCCNc1ncc(-c2cccc(F)c2)c(-c2nccn2C)n1 was CoaBC: 2.913%; Pks13 thioesterase: 10.62%; ClpP1P2: -13.63%; LiHisRS: 0%; MtTrpRS: 18.96%.
Result for Cc1nc(CN2C[C@@H]3CN(c4ncc(F)cn4)C[C@@H]3C2=O)cs1 was CoaBC: 6.667%; Pks13 thioesterase: -34.83%; ClpP1P2: 8.961%; LiHisRS: 19.66%; MtTrpRS: -4.302%.
Result for CCCn1ncc(C(=O)N2CCC(N3CCCCC3)CC2)c1C was CoaBC: 7.625%; Pks13 thioesterase: -37.55%; ClpP1P2: -5.034%; LiHisRS: 12.28%; MtTrpRS: -8.481%.
Result for COc1cnc(N2CCCC(c3ncc[nH]3)C2)nc1 (stereo not drawn) was CoaBC: -1.852%; Pks13 thioesterase: -21.3%; ClpP1P2: -10.86%; LiHisRS: 7.527%; MtTrpRS: -4.728%.
Result for CCOC(C)c1nc(COc2nc(C)no2)cs1 (stereo not drawn) was Pks13 thioesterase: -6.876%; ClpP1P2: -4.478%; LiHisRS: -1.408%; MtTrpRS: -0.3027%.
Result for Cc1nc2cc(C(=O)N(CCC#N)CC3CCCO3)ccc2[nH]1 (stereo not drawn) was CoaBC: 0.7282%; Pks13 thioesterase: 8.32%; ClpP1P2: -1.427%; LiHisRS: 0%.
Result for COc1ncccc1CNC1CCc2c(ccc(=O)n2CC2CC2)C1 (stereo not drawn) was CoaBC: 5.569%; Pks13 thioesterase: -19.6%; ClpP1P2: 2.896%; LiHisRS: 19.8%.
Result for CC(C)c1noc(CN2CCC(C3CCCCCN3S(C)(=O)=O)CC2)n1 (stereo not drawn) was CoaBC: 1.653%; Pks13 thioesterase: -9.811%; ClpP1P2: -6.066%; LiHisRS: 18.67%; MtTrpRS: 15.38%.
Result for CN(C)S(=O)(=O)N1CCCC(c2nccn2Cc2cccnc2)C1 (stereo not drawn) was CoaBC: 3.719%; Pks13 thioesterase: -42.88%; ClpP1P2: -5.005%; LiHisRS: 26.67%; MtTrpRS: 0.8704%.

For reference, 2 entries once more:

Compound	CoaBC	Pks13 thioesterase	ClpP1P2	LiHisRS	MtTrpRS
CN1CCN([C@@H]2CN(C(=O)c3ccnnc3)[C@@H]3CCCO[C@H]23)CC1	3.462	-4.723	-6.934	5.263	-7.033
Cn1ccc(C(=O)N2CCN(c3ncccn3)CC2)cc1=O	4.626	11.11	8.374	21.43	-1.017